Experimental data as given in PubChem BioAssay AID330 (DTP/NCI, 2004).
The list is a part of this screen's results and no random one: it covers a few groups of compounds. Other doses and runs of a compound may be missing. T/C is the treated group as % of the vehicle group. For survival time, the PubChem record calls one and a half times the control and up active, and a quarter to a half above the control has no call in these data; cut-offs in other NCI protocols can differ. Schedules are NCI's codes, read here as Q, the interval in days (D) or hours (H), X, the number of doses. Some entries hold several experiments; the results are listed from low to high. Some entries show no survivor count and are marked so; the dose need not have been tolerated. Some metal complexes and salts are drawn in pieces, as in the source, so charges may not balance.

Test system: P388 leukemia ip, CD2F1 mice, survival T/C
Test: NCI In Vivo Anticancer Drug Screen. Data for tumor model P388 Leukemia (intraperitoneal) in CD2F1 (CDF1) mice
Conditions: T/C endpoint: median survival time, higher T/C = longer survival

For `CN(CCCl)CCCl.O.O.O.[Cl][Ni+][Cl]`, the T/C (dose: 3.13 mg/kg/injection, schedule: Q01DX009 (ip), vehicle: water) was 133 % of control [survivor count not shown], the T/C (dose: 6.25 mg/kg/injection, schedule: Q01DX009 (ip), vehicle: water) was 141 % of control [survivor count not shown] and the T/C (dose: 11.0 mg/kg/injection, schedule: Q01DX009 (ip), vehicle: saline) was 148 % of control [survivor count not shown]. The T/C (dose: 12.5 mg/kg/injection, schedule: Q01DX009 (ip), vehicle: water) was 153 % of control [survivor count not shown], the T/C (dose: 16.5 mg/kg/injection, schedule: Q01DX009 (ip), vehicle: saline) was 155 % of control [survivor count not shown] and the T/C (dose: 25.0 mg/kg/injection, schedule: Q01DX009 (ip), vehicle: water) was 162 % of control [survivor count not shown].

With `CN(CCCl)CCCl` the T/C (dose: 0.06 mg/kg/injection, schedule: Q01DX009 (ip), vehicle: saline) was 150 [survivor count not shown] and 151 % of control [survivor count not shown], the T/C (dose: 0.12 mg/kg/injection, schedule: Q01DX005 (ip), vehicle: saline, evaluated on day 30) was 176 % of control and the T/C (dose: 0.12 mg/kg/injection, schedule: Q01DX005 (ip), vehicle: saline, evaluated on day 45) was 140 and 170 % of control. The T/C (dose: 0.12 mg/kg/injection, schedule: Q01DX005 (ip), vehicle: water) was 149 and 169 % of control, the T/C (dose: 0.12 mg/kg/injection, schedule: Q01DX009 (ip), vehicle: saline) was 170 [survivor count not shown] and 175 % of control [survivor count not shown] and the T/C (dose: 0.13 mg/kg/injection, schedule: Q01DX005 (ip), vehicle: saline) was 183 and 197 % of control. The T/C (dose: 0.25 mg/kg/injection, schedule: Q01DX005 (ip), vehicle: saline, evaluated on day 30) was 178 % of control, the T/C (dose: 0.25 mg/kg/injection, schedule: Q01DX005 (ip), vehicle: saline, evaluated on day 45) was 144, 184, 209 % of control and the T/C (dose: 0.25 mg/kg/injection, schedule: Q01DX005 (ip), vehicle: water) was 169 and 177 % of control. The T/C (dose: 0.25 mg/kg/injection, schedule: Q01DX009 (ip), vehicle: saline) was 166 [survivor count not shown] and 172 % of control [survivor count not shown], the T/C (dose: 0.25 mg/kg/injection, schedule: Q04DX003 (ip), vehicle: saline) was 169 and 178 % of control and the T/C (dose: 0.39 mg/kg/injection, schedule: Q04DX002 (ip), vehicle: saline) was 150 % of control. The T/C (dose: 0.5 mg/kg/injection, schedule: Q01DX005 (ip), vehicle: saline, evaluated on day 30) was 181 % of control, the T/C (dose: 0.5 mg/kg/injection, schedule: Q01DX005 (ip), vehicle: saline, evaluated on day 45) was 163, 209, 214, 233 % of control and the T/C (dose: 0.5 mg/kg/injection, schedule: Q01DX005 (ip), vehicle: water) was 177 % of control. The T/C (dose: 0.5 mg/kg/injection, schedule: Q01DX009 (ip), vehicle: saline) was 187 [survivor count not shown] and 201 % of control [survivor count not shown], the T/C (dose: 0.5 mg/kg/injection, schedule: Q04DX003 (ip), vehicle: saline) was 186 and 200 % of control and the T/C (dose: 0.65 mg/kg/injection, schedule: Q04DX002 (ip), vehicle: saline) was 164 % of control. The T/C (dose: 1.0 mg/kg/injection, schedule: Q01DX005 (ip), vehicle: saline, evaluated on day 30) was 163 % of control, the T/C (dose: 1.0 mg/kg/injection, schedule: Q01DX005 (ip), vehicle: saline, evaluated on day 45) was 153, 175, 281 % of control and the T/C (dose: 1.0 mg/kg/injection, schedule: Q01DX005 (ip), vehicle: water) was 235 % of control. The T/C (dose: 1.0 mg/kg/injection, schedule: Q01DX009 (ip), vehicle: saline) was 162 [survivor count not shown] and 218 % of control [survivor count not shown], the T/C (dose: 1.0 mg/kg/injection, schedule: Q04DX003 (ip), vehicle: saline) was 205 and 215 % of control and the T/C (dose: 1.08 mg/kg/injection, schedule: Q04DX002 (ip), vehicle: saline) was 174 % of control. The T/C (dose: 1.8 mg/kg/injection, schedule: Q04DX002 (ip), vehicle: saline) was 178 % of control, the T/C (dose: 2.0 mg/kg/injection, schedule: Q01DX005 (ip), vehicle: saline) was 155 % of control and the T/C (dose: 2.0 mg/kg/injection, schedule: Q04DX003 (ip), vehicle: saline) was 213 % of control. For the same compound, the T/C (dose: 3.0 mg/kg/injection, schedule: Q04DX002 (ip), vehicle: saline) was 100 % of control.

With `CN(CCCl)CCCl.CN(CCCl)CCCl.[Cl][Pt+2][Cl]` the T/C (dose: 3.13 mg/kg/injection, schedule: Q01DX009 (ip), vehicle: saline) was 185 % of control [survivor count not shown], the T/C (dose: 6.25 mg/kg/injection, schedule: Q01DX009 (ip), vehicle: saline) was 219 % of control [survivor count not shown] and the T/C (dose: 12.5 mg/kg/injection, schedule: Q01DX009 (ip), vehicle: saline) was 194 % of control [survivor count not shown]. For the same compound, the T/C (dose: 25.0 mg/kg/injection, schedule: Q01DX009 (ip), vehicle: saline) was 159 % of control [survivor count not shown].
